Hit rate of the full screen: of about 340,000 compounds, about 170 (0.05%) were called active. This list was built around the results that the source calls inconclusive (neither active nor inactive); the mix of calls is not that of the screen. Calls come from the whole dose curve; as a rule, active = well fitted inhibition curve with a large enough effect in the signal ratio, with a control signal flat (not every such curve was filed as active); inconclusive = small, poorly fitted or top-dose-only effect, or effect the other way, or a change in a side signal; inactive = flat fitted curve, though single readings scatter; the % refers to the signal ratio. A potency beside an inconclusive call is a rough fit, not a confirmed value.
Assay: qHTS Assay to Find Inhibitors of Chronic Active B-Cell Receptor Signaling;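 for activity change, negative = inhibition: plate controls were basal doxycycline-induced cells for no effect and cells given 10 µM MG132 for full effect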
Conditions: ABC-DLBCL IkBa-CBG/CBR reporter, luminescence ratio (green luciferase fused to IkBa over red control in TMD8 lymphoma cells), 4 h; activity change, negative = inhibition: at 46.1 µM (top of the series) unless noted
In short: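 Compounds up to 46 uM were incubated four hours with TMD8 cells whose green CBG68 luciferase is fused to IkappaBalpha; red CBR luminescence normalised the signal, and concentration-effect curves were fitted to fusion, red and ratio data.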
For N#Cc1ccsc1NC(=O)C1CCN(C(=O)c2ccc(Cl)cc2)CC1, the “activity change, negative = inhibition” value was inactive: -3.48%.
For CCOCCCNC(=O)C(=O)Nc1c2c(nn1-c1ccc(OC)cc1)CSC2, the activity change, negative = inhibition was inconclusive: 10.2%.
With COc1ccc(S(=O)(=O)Nc2cc3c4c(c2)CCN4C(=O)CC3)cc1C the Potency was inconclusive: 18.4 µM [falling, partial curve, poor fit].
For Cc1sc(NC(=O)Cc2ccc3c(c2)OCO3)nc1-c1ccc2c(c1)CCN2C(=O)c1ccc(F)cc1, the Potency was inconclusive: 23.1 µM [rising, partial curve, poor fit].
For CC(Nc1nc2ccccc2n2cnnc12)c1ccccc1 (stereo unspecified), the Potency was inconclusive: 25.1 µM [falling, partial curve].
For C/C(=N\Nc1cccc(Cl)c1)c1ccncc1, the “activity change, negative = inhibition” value was inactive: -12%.
With Cc1cc(=O)n2nc(N3CCCC(C(=O)NCCc4ccc(Cl)cc4)C3)sc2n1 (stereo unspecified) the “activity change, negative = inhibition” value was inactive: -1.43%.
With Cc1nc2cc(-c3ccccc3)nn2c(C)c1CCC(=O)NC(C)c1ccc2c(c1)OCCO2 (stereo unspecified) the Potency was inconclusive: 25.9 µM [falling, single point].
With O=C(NCCCn1ccnc1)/C(=C\c1ccc(Br)cc1)NC(=O)c1ccccc1F the “activity change, negative = inhibition” value was inactive: 4.13%.
With Cc1ccc(S(=O)(=O)/N=C(/c2ccc(F)cc2)N2CCOCC2)cc1 the activity change, negative = inhibition was inconclusive: -100%.
With CSc1nc(Oc2ccc3ccccc3c2)c2sccc2n1 the “activity change, negative = inhibition” value was inactive: -16.6%.
For CN(C)c1ccc(P(=O)(OC2CCCCC2)C(O)c2cccnc2)cc1 (stereo unspecified), the “activity change, negative = inhibition” value was inactive: -0.393%.
In the case of O=C(CNC(=S)N(CCCN1CCOCC1)Cc1cccs1)NCc1ccccc1Cl, the “activity change, negative = inhibition” value was inactive: 0.722%.
With N#CCCn1c(C2CCCCC2)nc2ccccc21 the activity change, negative = inhibition was inconclusive: -0.091%.
For CC(C)CCC(C)N=Cc1c(O)n(Cc2ccccc2)c(=O)c2ccccc12 (stereo unspecified), the activity change, negative = inhibition was inconclusive: 21%.
For N#C/C(=C/c1cccc([N+](=O)[O-])c1)C(=O)Nc1ccccc1O, the Potency was inconclusive: 20 µM [falling, single point].
For COc1ccccc1NC(=O)c1c(N=Cc2c(O)ccc3ccccc23)cnn1C, the activity change, negative = inhibition was inconclusive: -24.1%.
With COc1ccc(Br)cc1CN(C)CC(O)COc1ccc(Br)cc1 (stereo unspecified) the “activity change, negative = inhibition” value was inactive: -20.8%.
With CC(C)[C@H](NC(=O)N1c2ccccc2NC(=O)[C@@H]1C(C)C)C(=O)N1CCC(C(=O)O)CC1 the activity change, negative = inhibition was inconclusive: -15%.
For C=CCn1c(SCc2c(C(=O)OC)sc(N)c2C(=O)OC)nnc1-c1ccc(Br)cc1, the Potency was inconclusive: 29.1 µM [falling, partial curve, poor fit].
In the case of O=CNNC(=O)c1cccc([N+](=O)[O-])c1, the Potency was inconclusive: 5.17 µM [rising, single point].
In the case of Cc1cc(OCc2cc(C(=O)N(C)CCc3cnn(C)c3)no2)cc(C)c1Cl, the “activity change, negative = inhibition” value was inactive: 1.56%.
In the case of O=C1N(CN2CCOCC2)c2ccccc2C12OCC(CCl)O2 (stereo unspecified), the activity change, negative = inhibition was inconclusive: 1.1%.
For Cc1ccc(-c2nn(-c3ccccc3)cc2C=C2C(=O)CC(C)(C)CC2=O)cc1, the activity change, negative = inhibition was inconclusive: -1.59%.
For CC(/C=C/c1ccco1)=N\NC(=O)C(O)c1ccccc1 (stereo unspecified), the Potency was inconclusive: 29.1 µM [falling, partial curve, poor fit].
For O=C(C1CCN(Cc2ccc(OCc3ccccc3)cc2)CC1)N1CCCC1, the activity change, negative = inhibition was inconclusive: 19.1%.
In the case of CCOC(=O)c1oc2ccccc2c1NC(=O)c1cccc(OC)c1OC, the activity change, negative = inhibition was inconclusive: 6.91%.
In the case of c1coc(Cn2nnnc2CN2CCN(C3CCCC3)CC2)c1, the “activity change, negative = inhibition” value was inactive: -5.23%.
For COc1ccc(C(=O)/C=C/Nc2ccccn2)cc1, the Potency was inconclusive: 9.2 µM [rising, partial curve].
For CCO[C@H]1OC(C(=O)Nc2ccccc2)=C[C@@H](c2ccc(C(F)(F)F)cc2)[C@@H]1CCCO, the activity change, negative = inhibition was inconclusive: 17.4%.
For Cc1cccc(OCC(=O)N2CCOCC2)c1, the activity change, negative = inhibition was inconclusive: 0.361%.
For CN(C)c1ccc(N=Nc2ccc(C(=O)O)cc2)cc1, the activity change, negative = inhibition was inconclusive: 168%.
With CN(CC(=O)Nc1ccccc1Br)C(=O)CCC1CCCC1 the Potency was inconclusive: 8.91 µM [falling, partial curve, poor fit].
In the case of Cc1ccc(-n2nc3c(=O)n(CCCC(=O)NCc4ccccc4F)nc(C)c3c2C)cc1, the “activity change, negative = inhibition” value was inactive: 1.57%.
With O=C(CSc1nc2ccncc2[nH]1)Nc1ccccc1C(F)(F)F the “activity change, negative = inhibition” value was inactive: -3.48%.
In the case of COC(=O)CCCCC1SCC(NC(=O)c2ccccc2)C1OC(C)=O (stereo unspecified), the activity change, negative = inhibition was inconclusive: -1.9%.
In the case of O=C(COc1ccc(Br)cc1)N1CCN(c2ncccn2)CC1, the activity change, negative = inhibition was inconclusive: 9.68%.
For CC(=O)Nc1ccc(Nc2nnc(-c3ccc(C)c(S(=O)(=O)NCCO)c3)c3ccccc23)cc1, the Potency was inconclusive: 35.5 µM [falling, partial curve, poor fit].
For COc1ccc(C2CC(c3ccccc3)=NN2C(=O)CCC(=O)O)cc1 (stereo unspecified), the “activity change, negative = inhibition” value was inactive: 8.48%.
In the case of CC(CCc1ccccc1)NC(=O)c1cc2sccc2n1C (stereo unspecified), the activity change, negative = inhibition was inconclusive: 7.61%.
For S=C(NCc1cccnc1)Nc1ccc(Cl)c(Cl)c1, the activity change, negative = inhibition was inconclusive: 10.6%.
In the case of O=S(=O)(c1ccc(F)c(F)c1)N1CCN(Cc2ccc3c(c2)OCO3)CC1, the “activity change, negative = inhibition” value was inactive: -0.595%.
In the case of Nc1c(-c2ccc(Cl)cc2)cnc2ncnn12, the activity change, negative = inhibition was inconclusive: -2.96%.
With O=C(N/N=C/c1cccs1)C1CC(=O)N(c2ccccc2)C1 (stereo unspecified) the Potency was inconclusive: 12.6 µM [falling, partial curve].
With CC(C)(C)c1cc(N)n(-c2ccc(C(=O)O)cc2)n1 the activity change, negative = inhibition was inconclusive: -19.4%.
With Cc1c(C)c2ccc(O[C@@H]3O[C@H](CO)[C@@H](O)[C@H](O)[C@H]3O)c(C)c2oc1=O the “activity change, negative = inhibition” value was inactive: -0.742%.
In the case of CCOC(=O)Cc1cc(=O)n2[nH]c(-c3ccccc3)cc2n1, the Potency was inconclusive: 29.1 µM [rising, single point].
For CCCNC(=O)c1ccc2snnc2c1, the “activity change, negative = inhibition” value was inactive: -5.19%.
In the case of O=C(NC(Cc1ccccc1)C(=O)O)C1CCN(S(=O)(=O)c2ccccc2C(F)(F)F)CC1 (stereo unspecified), the “activity change, negative = inhibition” value was inactive: 1.7%.
For Cc1ccc2nc(CCl)[n+]([O-])c(-c3ccccc3)c2c1, the “activity change, negative = inhibition” value was inactive: -3.52%.
For Cc1cc2cc(C(c3nnnn3C3CCCC3)N(Cc3cccnc3)Cc3ccco3)c(=O)[nH]c2cc1C (stereo unspecified), the “activity change, negative = inhibition” value was inactive: 10.3%.
In the case of Cc1ccc(-c2nc(NCCN3CCOCC3)c3ccccc3n2)cc1, the “activity change, negative = inhibition” value was inactive: 6.61%.
With O=C(COC(=O)COc1ccc(Cl)cc1)NCc1cccs1 the activity change, negative = inhibition was inconclusive: 9.82%.
In the case of O=C(O)c1cccc(-n2nc(-c3ccc(Cl)c([N+](=O)[O-])c3)c3ccccc3c2=O)c1, the activity change, negative = inhibition was inconclusive: 0.385%.
In the case of O=C(COC(=O)c1ccccc1Nc1ccccc1)Nc1ccccc1, the activity change, negative = inhibition was inconclusive: -1.88%.
With CC(=O)Nc1ccc(NC(=O)C(C)OC(=O)CCC2CCCC2)cc1 (stereo unspecified) the activity change, negative = inhibition was inconclusive: -0.0246%.
For Cc1ccc(SC(CC(=O)c2ccc(C)cc2)C(=O)O)cc1 (stereo unspecified), the Potency was inconclusive: 18.4 µM [rising, single point].
For COc1ccc(S(=O)(=O)N(C)C[C@H]2Oc3ccc(NS(=O)(=O)c4c(C)noc4C)cc3C(=O)N([C@H](C)CO)C[C@@H]2C)cc1, the activity change, negative = inhibition was inconclusive: -0.469%.
With Cc1ccc(C2C(C#N)=C(N)Oc3n[nH]c(-c4cccs4)c32)s1 (stereo unspecified) the activity change, negative = inhibition was inconclusive: 0.204%.
In the case of O=C(Nc1nnc(-c2ccccc2)s1)c1ccc(Cl)c(S(=O)(=O)N2CCOCC2)c1, the activity change, negative = inhibition was inconclusive: 2.37%.
With CN(Cc1nc(-c2ccc(C(F)(F)F)cc2)no1)C1CCOCC1 the activity change, negative = inhibition was inconclusive: 15.8%.
In the case of OC(CNCc1ccc(F)cc1)(c1ccc(F)cc1)c1ccc(F)cc1, the activity change, negative = inhibition was inconclusive: 0.0776%.
In the case of Cc1nc2c(ccc3nc(NC(=O)Cc4cccc5ccccc45)sc32)s1, the activity change, negative = inhibition was inconclusive: 3.64%.
With CC(C)C(=O)Nc1ccc(-c2nc3cccnc3o2)cc1 the activity change, negative = inhibition was inconclusive: 7.87%.
In the case of O=S(=O)(c1ccc(-c2ccon2)s1)N1CCCC1, the activity change, negative = inhibition was inconclusive: -2.16%.
With O=[N+]([O-])c1ccc(O)c(-c2nn[nH]n2)c1 the Potency was inconclusive: 20.6 µM [falling, single point].
For O=C(Nc1cc(C(F)(F)F)ccc1N1CCOCC1)c1cccs1, the activity change, negative = inhibition was inconclusive: 5.01%.
In the case of O=C(CCCN1C(=O)/C(=C\c2cccs2)SC1=S)NNC(=O)c1ccncc1, the Potency was inconclusive: 2.24 µM [falling, full curve, poor fit].
In the case of O=C(Nc1nnc(C2CC2)s1)C1Cc2ccccc2CN1C(=O)c1ccco1 (stereo unspecified), the activity change, negative = inhibition was inconclusive: 7.73%.
With O=C(CNC(=O)C1COc2ccccc2O1)N/N=C\c1ccccc1Cl (stereo unspecified) the “activity change, negative = inhibition” value was inactive: 6.15%.
In the case of COC(=O)c1ccc(-c2ccco2)n1Cc1nc(-c2ccc(OC)c(OC)c2)oc1C, the Potency was inconclusive: 29.1 µM [falling, single point].
With CC(=O)NS(=O)(=O)c1cccnc1Nc1ccc(Cl)c(Cl)c1 the activity change, negative = inhibition was inconclusive: 2.69%.
For O=C(c1ccc(C(F)(F)F)cc1)N1CCC(=O)N(C(COCc2ccc(C(F)(F)F)cc2)Cc2ccccc2)CC1 (stereo unspecified), the activity change, negative = inhibition was inconclusive: -13.5%.
For CCOC(=O)c1c(N)sc2c1CCCC2, the activity change, negative = inhibition was inconclusive: -25%.
For NS(=O)(=O)c1ccc(NC(=O)CSc2nc3ccccc3n2-c2ccccc2)cc1, the activity change, negative = inhibition was inconclusive: 6.02%.
With CCOc1ccc(-n2c(=S)sc3c(=O)[nH]c(SCC(=O)C(C)(C)C)nc32)cc1 the activity change, negative = inhibition was inconclusive: -2.98%.
With CCOc1ccccc1N1CCN(C(=O)NCc2ccc(F)cc2)CC1 the “activity change, negative = inhibition” value was inactive: 16.2%.
With O=C(O)c1cc(NN=C2c3ccccc3-c3ccccc32)ccc1Cl the Potency was inconclusive: 22.4 µM [falling, partial curve].
With CN(C)S(=O)(=O)c1cccc(NC(=O)C2Cc3ccccc3CN2C(=O)c2ccco2)c1 (stereo unspecified) the activity change, negative = inhibition was inconclusive: 2.66%.
For COc1cc(Cl)cc2c1Sc1ccccc1/C2=C/CCN(C)C, the Potency was inconclusive: 14.6 µM [falling, partial curve].
With COc1ccc(C(=O)N/N=C/c2ccc(OC)c(CSc3ccccn3)c2)cc1 the activity change, negative = inhibition was inconclusive: 5.05%.
Potency is the fitted concentration of half-maximal effect.
